Results on 25 compounds are retold here after PubChem BioAssay AID328 (DTP/NCI, 2004).

For this test, the system named is BDF1 mice, P388 leukemia ip, median survival T/C. Put plainly: NCI In Vivo Anticancer Drug Screen. Data for tumor model P388 Leukemia (intraperitoneal) in B6D2F1 (BDF1) mice. The settings on record: T/C endpoint: median survival time, higher T/C = longer survival. In a few lines: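 Steps: implant the tumour, treat one group with compound and another with vehicle, record survival, then divide treated by control.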

[1] abbreviates: dose: 25.0 mg/kg/injection, schedule: Q01DX009 (ip), vehicle: saline with Tween-80.
Where [2] appears, read: dose: 100.0 mg/kg/injection, schedule: Q01DX009 (ip), vehicle: Klucel (hydroxypropylcellulose) (HPC).
Setting [3] is: dose: 200.0 mg/kg/injection, schedule: Q04DX003 (ip), vehicle: Klucel (hydroxypropylcellulose) (HPC).
Setting [4] is: dose: 100.0 mg/kg/injection, schedule: Q01DX009 (ip), vehicle: saline with Tween-80.
Where [5] appears, read: dose: 200.0 mg/kg/injection, schedule: Q01DX009 (ip), vehicle: saline with Tween-80.
[6] abbreviates: dose: 200.0 mg/kg/injection, schedule: Q01DX009 (ip), vehicle: Klucel (hydroxypropylcellulose) (HPC).
Where [7] appears, read: dose: 50.0 mg/kg/injection, schedule: Q01DX009 (ip), vehicle: saline.
Setting [8] is: dose: 75.0 mg/kg/injection, schedule: Q01DX009 (ip), vehicle: saline.

The list shows only some results of the screen, not a fair sample: it gathers tests that were run many times, whatever their T/C, doses with no T/C, and many T/C values between a quarter and a half above the control. Other doses and runs of a compound stand elsewhere. T/C is the treated group as % of the vehicle group. Some doses have a count of surviving animals in place of a T/C: the source files T/C as zero there, which appears to mark a toxic dose or a test without result, not a measured value. Some doses without a T/C left all or most animals alive at the check, yet need not have been tolerated: the source hardly ever lists a survival T/C far under the control, and the zero likely stands for such cases as well. Counts of survivors are from the toxicity check (mostly the fifth day) where no day follows; animals may have died later. Schedule codes are those of the source, read here as Q, the interval in days (D) or hours (H), X, the number of doses. Some entries were tested several times; the results are listed from low to high. Where survival is the endpoint, this PubChem deposit counts one and a half times the control or more as active, and values a quarter to a half above the control carry no call in these data; other NCI protocols may use other cut-offs. Some T/C values carry the count of animals alive at the toxicity check (mostly the fifth day); where none is given, no animal had died by that day.

On to `CCOC(=O)NC1=C(N2CC2C)C(=O)C(NC(=O)OCC)=C(N2CC2C)C1=O` (stereo unspecified), for which the T/C is, setting by setting: (dose: 6.25 mg/kg/injection, schedule: Q01DX001 (ip), vehicle: Klucel (hydroxypropylcellulose) (HPC)) 126 % of control; (dose: 12.5 mg/kg/injection, schedule: Q01DX001 (ip), vehicle: Klucel (hydroxypropylcellulose) (HPC)) 130 % of control; (dose: 25.0 mg/kg/injection, schedule: Q01DX001 (ip), vehicle: Klucel (hydroxypropylcellulose) (HPC)) 141 % of control. In addition, the survivor count (dose: 50.0 mg/kg/injection, schedule: Q01DX001 (ip), vehicle: Klucel (hydroxypropylcellulose) (HPC)) is 2 of 6 and the survivor count (dose: 100.0 mg/kg/injection, schedule: Q01DX001 (ip), vehicle: Klucel (hydroxypropylcellulose) (HPC)) was 0 of 6.
With `Cc1ccc(C)c2c1CCCC2=O`, the survivor count under setting [1] is listed as 6 of 6.
Consider `Nc1nc(=S)c2[nH]c(=S)[nH]c2[nH]1`, for which the T/C runs as follows: (dose: 176.0 mg/kg/injection, schedule: Q04DX003 (ip), vehicle: saline with Tween-80) 125 % of control; (dose: 264.0 mg/kg/injection, schedule: Q04DX003 (ip), vehicle: saline with Tween-80) 145 % of control.
On to `NCc1cn(C2OC(CO)C(O)C2O)c2ncnc(N)c12` (stereo unspecified), for which the survivor count is, setting by setting: (dose: 6.25 mg/kg/injection, schedule: Q01DX009 (ip), vehicle: saline) 5 of 6 and 6 of 6; (dose: 12.5 mg/kg/injection, schedule: Q04DX003 (ip), vehicle: saline) 6 of 6.
Turning to `Cc1ccc(S[Si](Sc2ccc(C)cc2)(Sc2ccc(C)cc2)Sc2ccc(C)cc2)cc1`, the survivor count (dose: 100.0 mg/kg/injection, schedule: Q04DX002 (ip), vehicle: saline with Tween-80) was 6 of 6.
Take `CC1(C)N=C(N)N=C(N)N1c1ccc(OCC(=O)N2CCOCC2)c(Cl)c1`: the T/C (dose: 25.0 mg/kg/injection, schedule: Q01DX009 (ip), vehicle: saline sonified) was 131 % of control and the T/C (dose: 50.0 mg/kg/injection, schedule: Q01DX009 (ip), vehicle: saline sonified) was 131 % of control.
As for `CC(C)S(=O)(=O)/C(Cl)=C(/Cl)C(Cl)=C(Cl)Cl`, the survivor count runs as follows: (dose: 44.0 mg/kg/injection, schedule: Q01DX009 (ip), vehicle: Klucel (hydroxypropylcellulose) (HPC)) 4 of 6; (dose: 66.0 mg/kg/injection, schedule: Q01DX009 (ip), vehicle: Klucel (hydroxypropylcellulose) (HPC)) 6 of 6; under setting [2], 6 of 6; (dose: 150.0 mg/kg/injection, schedule: Q01DX009 (ip), vehicle: Klucel (hydroxypropylcellulose) (HPC)) 6 of 6.
Take `CN(C)C1Cc2ccccc2C1OC(=O)c1ccccc1` (stereo unspecified): the T/C (dose: 100.0 mg/kg/injection, schedule: Q01DX009 (ip), vehicle: saline) is 126 % of control.
For `CC1(CO)C(O)CCC2(C)C1CCC1CC3CC12CCC3(O)CO` (stereo unspecified), the T/C (dose: 37.5 mg/kg/injection, schedule: Q01DX009 (ip), vehicle: saline with Tween-80) is 136 % of control.
Regarding `Nc1nc(=S)c2[nH]c(N=Nc3ccc(S(N)(=O)=O)cc3)nc2[nH]1`, the T/C runs as follows: (dose: 50.0 mg/kg/injection, schedule: Q04DX003 (ip), vehicle: Klucel (hydroxypropylcellulose) (HPC)) 145 % of control [5 of 6 alive]; (dose: 100.0 mg/kg/injection, schedule: Q04DX003 (ip), vehicle: Klucel (hydroxypropylcellulose) (HPC)) 137 % of control. In addition, under setting [3], the survivor count was 3 of 6.
As to `CCCC(=O)c1ccco1`, the survivor count runs as follows: under setting [4], 4 of 6; under setting [5], 0 of 6.
Take `O=S(=O)(O)c1ccc(Nc2ccccc2)cc1`: the survivor count under setting [6] is 5 of 6.
On to `C[N+](C)(C)CCC[N+](C)(C)C`, for which the T/C by setting is: (dose: 50.0 mg/kg/injection, schedule: Q01DX006 (ip), vehicle: saline) 131 % of control; (dose: 100.0 mg/kg/injection, schedule: Q01DX006 (ip), vehicle: saline) 125 % of control; (dose: 150.0 mg/kg/injection, schedule: Q01DX006 (ip), vehicle: saline) 137 % of control.
`COc1cc(C#N)ccc1O`: the survivor count reads like this: (dose: 400.0 mg/kg/injection, schedule: Q01DX009 (ip), vehicle: gum acacia) 3 of 6; (dose: 400.0 mg/kg/injection, schedule: Q04DX003 (ip), vehicle: gum acacia) 6 of 6.
`COc1ccc(C=Nc2c(N)[nH]c(=S)[nH]c2=O)cc1`: the T/C (dose: 400.0 mg/kg/injection, schedule: Q04DX002 (ip), vehicle: saline with Tween-80) was 127 and 128 % of control; the T/C (dose: 600.0 mg/kg/injection, schedule: Q04DX002 (ip), vehicle: saline with Tween-80) was 134 % of control.
Take `CCC1OC(=O)C(C)C(OC2CC(C)(O)C(O)C(C)O2)C(C)C(O)C(C)(O)CC(C)C(=O)C(C)C(O)C1C` (stereo unspecified): the survivor count (dose: 400.0 mg/kg/injection, schedule: Q01DX009 (ip), vehicle: saline) was 0 of 6.
Take `N#Cc1c[nH]n2c(=S)ncnc12`: the survivor count (dose: 400.0 mg/kg/injection, schedule: Q04DX003 (ip), vehicle: saline with Tween-80) is listed as 4 of 6.
On to `Clc1cccc(Cl)c1Br`, for which the survivor count under setting [3] is given as 6 of 6.
Regarding `Cc1ccc(C(=O)C2CC2)c(C)c1`, the T/C by setting is: under setting [4], 125 % of control; under setting [5], 135 % of control; (dose: 400.0 mg/kg/injection, schedule: Q01DX009 (ip), vehicle: saline with Tween-80) 135 % of control [4 of 6 alive].
On to `CC(C)c1ccc2c(c1)CC[C@H]1[C@](C)(CN=C(N)CCl)CCC[C@]21C`, for which the survivor count is 5 of 6 (dose: 12.5 mg/kg/injection, schedule: Q01DX009 (ip), vehicle: Klucel (hydroxypropylcellulose) (HPC)); 6 of 6 (dose: 25.0 mg/kg/injection, schedule: Q01DX009 (ip), vehicle: Klucel (hydroxypropylcellulose) (HPC)); 3 of 6 (dose: 50.0 mg/kg/injection, schedule: Q01DX009 (ip), vehicle: Klucel (hydroxypropylcellulose) (HPC)); 0 of 6 under setting [2]; 0 of 6 under setting [6].
As to `COc1ccc(C[C@@H]2NC[C@@H](O)[C@@H]2OC(C)=O)cc1`, the survivor count by setting is: (dose: 22.0 mg/kg/injection, schedule: Q01DX009 (ip), vehicle: saline) 3 of 3; (dose: 33.0 mg/kg/injection, schedule: Q01DX009 (ip), vehicle: saline) 3 of 3; under setting [7], 3 of 3; under setting [8], 3 of 3. In addition, the T/C under setting [7] was 128 % of control; the T/C under setting [8] is 132 % of control; the T/C (dose: 200.0 mg/kg/injection, schedule: Q01DX009 (ip), vehicle: saline) is 128 % of control.
On to `C1=C\CCCCCCCC/1`, for which the survivor count runs as follows: (dose: 6.25 mg/kg/injection, schedule: Q01DX009 (ip), vehicle: saline with Tween-80) 6 of 6; (dose: 12.5 mg/kg/injection, schedule: Q01DX009 (ip), vehicle: saline with Tween-80) 6 of 6; under setting [1], 6 of 6.
Turning to `C=CC(C)(C)c1cc2cc3c(cc2oc1=O)OC(C(C)(C)OC(C)=O)C3` (stereo unspecified), for the setting “dose: 400.0 mg/kg/injection, schedule: Q04DX003 (ip), vehicle: saline”, the survivor count was 5 of 6.
Turning to `CC(C)N(CC#N)C(C)C`, the survivor count reads like this: (dose: 1.0 mg/kg/injection, schedule: Q04DX003 (ip), vehicle: saline with Tween-80) 0 of 6; (dose: 50.0 mg/kg/injection, schedule: Q04DX003 (ip), vehicle: saline) 0 of 6; (dose: 100.0 mg/kg/injection, schedule: Q04DX003 (ip), vehicle: saline) 0 of 6; (dose: 200.0 mg/kg/injection, schedule: Q04DX003 (ip), vehicle: saline) 0 of 6.
With `CC1CC/C(=N\N(C)C)c2ccccc21` (stereo unspecified), the T/C (dose: 100.0 mg/kg/injection, schedule: Q04DX003 (ip), vehicle: saline with Tween-80) was 141 % of control; the T/C (dose: 150.0 mg/kg/injection, schedule: Q04DX003 (ip), vehicle: saline with Tween-80) is 127 % of control; the T/C (dose: 200.0 mg/kg/injection, schedule: Q04DX003 (ip), vehicle: saline with Tween-80) is 133 % of control.
